From paper doi:10.1101/2021.11.03.467169 come the findings set out here.

The chains behind the UniProt entries cited, without tags or fusion partners. Where a name states a change or a piece, a line headed by the entry shows the natural chain unless it says otherwise.
UniProt P08913: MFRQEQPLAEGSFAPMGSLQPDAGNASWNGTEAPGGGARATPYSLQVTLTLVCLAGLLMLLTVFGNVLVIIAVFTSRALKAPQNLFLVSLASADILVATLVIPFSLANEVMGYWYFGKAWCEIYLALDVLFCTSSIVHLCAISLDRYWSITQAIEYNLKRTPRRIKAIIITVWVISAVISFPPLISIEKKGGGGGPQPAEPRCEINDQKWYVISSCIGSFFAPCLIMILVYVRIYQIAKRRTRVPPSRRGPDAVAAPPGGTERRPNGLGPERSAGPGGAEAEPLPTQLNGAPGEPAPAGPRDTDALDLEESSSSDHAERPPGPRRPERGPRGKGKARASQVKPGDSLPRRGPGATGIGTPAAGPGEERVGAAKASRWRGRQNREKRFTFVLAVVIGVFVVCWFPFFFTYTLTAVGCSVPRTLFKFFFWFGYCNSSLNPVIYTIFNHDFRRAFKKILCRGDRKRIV
UniProt P63096: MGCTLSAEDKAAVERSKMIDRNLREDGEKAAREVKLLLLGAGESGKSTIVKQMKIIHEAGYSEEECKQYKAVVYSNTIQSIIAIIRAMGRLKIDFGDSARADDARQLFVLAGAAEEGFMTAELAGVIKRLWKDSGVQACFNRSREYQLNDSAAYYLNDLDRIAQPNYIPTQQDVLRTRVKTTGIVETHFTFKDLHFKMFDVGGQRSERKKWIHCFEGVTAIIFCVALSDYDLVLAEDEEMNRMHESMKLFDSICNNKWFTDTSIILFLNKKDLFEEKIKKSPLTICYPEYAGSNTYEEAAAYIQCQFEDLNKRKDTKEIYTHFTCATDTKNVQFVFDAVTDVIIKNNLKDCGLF

Experiment [1] addresses G-ADRA2A (adrenergic receptor ADRA2A labelled with mEGFP) (UniProt P08913). The experiment is described as follows: spectrally resolved raster image correlation spectroscopy.
Experiment [2] has the same target. The experiment is described as follows: fluorescence covariance matrix analysis.

These are yes or no findings as the source states them, for the method shown.

Turning to “GNAI1-Y (GNAI1 carrying an mEYFP(Q69K) tag in the αb-αc loop) (from UniProt P63096 1-354)”, the binding result in experiment [1] and in experiment [2] was “no binding” in each case.
